Source: article PMC9966435, “Synthesis and Biological Evaluation of 3-Amidoquinuclidine Quaternary Ammonium Compounds as New Soft Antibacterial Agents” (Pharmaceuticals, 2023)

How the values were obtained:
Assay type in all cases: cell-based
[1] = tested on: Escherichia coli ATTC25922; assay: Broth microdilution MIC in Mueller Hinton broth; settings: ATTC25922, read-out: Minimum Inhibitory Concentration (MIC) Escherichia coli ATTC25922
[2] = tested on: Bacillus cereus ATCC14579; assay: Broth microdilution MIC in Mueller Hinton broth; settings: ATCC14579, read-out: Minimum Inhibitory Concentration (MIC) Bacillus cereus ATCC14579
[3] = tested on: Listeria monocytogenes ATCC7644; assay: Broth microdilution MIC in Mueller Hinton broth; settings: ATCC7644, read-out: Minimum Inhibitory Concentration (MIC) Listeria monocytogenes ATCC7644
[4] = tested on: Staphylococcus aureus Clinical/MRSA; assay: Broth microdilution MIC in Mueller Hinton broth; settings: read-out: Minimum Inhibitory Concentration (MIC) Staphylococcus aureus Clinical/MRSA
[5] = tested on: Pseudomonas aeruginosa ATTC27853; assay: Broth microdilution MIC in Mueller Hinton broth; settings: ATTC27853, read-out: Minimum Inhibitory Concentration (MIC) Pseudomonas aeruginosa ATTC27853
[6] = tested on: Staphylococcus aureus ATCC33591; assay: Broth microdilution MIC in Mueller Hinton broth; settings: ATCC33591, read-out: Minimum Inhibitory Concentration (MIC) Staphylococcus aureus ATCC33591
[7] = tested on: Salmonella enterica food isolate; assay: microbe, parasite or virus in culture; settings: read-out: Minimum Inhibitory Concentration (MIC) Salmonella enterica food isolate
[8] = tested on: Enterococcus faecalis ATCC29212; assay: Broth microdilution MIC in Mueller Hinton broth; settings: ATCC29212, read-out: Minimum Inhibitory Concentration (MIC) Enterococcus faecalis ATCC29212
[9] = tested on: Staphylococcus aureus ATCC25923; assay: Broth microdilution MIC in Mueller Hinton broth; settings: ATCC25923, read-out: Minimum Inhibitory Concentration (MIC) Staphylococcus aureus ATCC25923

CCCCCCCCCCCCCCCC[n+]1ccccc1 [CPC, cetylpyridinium chloride, reference compound]
MIC [1]: 16 µM
MIC [2]: 16 µM
MIC [3]: 8 µM
MIC [4]: 8 µM
MIC [5]: 250 µM
MIC [6]: 6 µM
MIC [7]: 63 µM
MIC [8]: 8 µM
MIC [9]: 4 µM
